Patent US9415122B2 (priority 2008, dated 2016)

Experiment: general procedure: Fmoc solid-phase peptide synthesis; 2-chlorotritylchloride resin; Benzotriazol-1-yl-oxytripyrrolidinophosphonium hexafluorophosphate, 1-hydroxyben
Settings: conjugation step

Q: With “C-GFTQPETGTDNDLWSVDNEK (Tris-(Gd-DOTA)3 conjugate)” as the substance, how does the conjugation yield read?
A: 68%
